Measured values reported in PubChem BioAssay AID540276 (National Center for Advancing Translational Sciences (NCATS), 2011).
About 5,400 (1.8%) of roughly 300,000 compounds were called active. Inconclusive results, whose numbers are uncertain, are shown with a selection of clear calls. Calls come from the whole dose curve; tested in HEK293 cells. A potency beside an inconclusive call is a rough fit, not a confirmed value.

Test: qHTS for inhibitors of binding or entry into cells for Marburg Virus
Settings: Marburg virus pseudotyped entry inhibition, cell reporter; activity change, negative = inhibition: at 37.8 µM (top of the series) unless noted
% is set by controls: 0 for no effect and ±100 for the full control effect; potency is the fitted concentration of half-maximal effect.

SMILES	Potency	activity change, negative = inhibition
Cc1ccc(C(=O)C[n+]2cc(Br)cc(Br)c2)cc1	inconclusive: 1 µM [inhibitor, full curve, poor fit]	
COc1ccc(NC(=S)Nc2ccc3snnc3c2)cc1	inconclusive: 0.562 µM [activator, full curve, poor fit]	
CN(C)c1ccnc2sc(C(=O)c3ccccc3)c(N)c12	inconclusive: 2.91 µM [activator, partial curve, poor fit]	
Cc1cc(C)c(NC(=O)C2C3/C=C\CCCCC32)c(C)c1 (stereo not drawn)	inconclusive: 8.2 µM [activator, partial curve, poor fit]	
O=C(NCc1ccc(F)cc1F)c1cc(COc2c(F)cccc2F)on1		inactive: 2.03%
O=C(c1ccc2c(c1)N(Cc1ccccc1F)C(=O)c1ccccc1S2=O)N1CCN(c2ccccc2)CC1 (stereo not drawn)	inconclusive: 35.5 µM [inhibitor, single point]	
COc1ccc(N2C(=O)CC(N3CCN(S(=O)(=O)c4c(C)cc(C)cc4C)CC3)C2=O)cc1 (stereo not drawn)	inconclusive: 31.6 µM [activator, single point]	
COc1ccccc1NC(=O)/C(=C/c1cccs1)NC(=O)c1ccco1		inactive: -0.0653% [at 46.1 µM]
COc1ccc(/C=C/C(=O)NC(C)CCc2ccccc2)cc1 (stereo not drawn)		inactive: 17.1%
Cc1ccc(NC(=O)CN2CCN(CCN=CC3=C(O)CC(c4ccc(C)cc4)CC3=O)CC2)cc1 (stereo not drawn)	inconclusive: 0.891 µM [activator, full curve, poor fit]	
CCCCC(=O)NC(c1ccc(Cl)cc1)c1ccc2cccnc2c1O (stereo not drawn)	active: 3.98 µM	
Cc1cc(C(=O)N/N=C\C(Br)=C\c2ccccc2)c(C)o1	inconclusive: 11.2 µM [inhibitor, partial curve, poor fit]	
S=C(NC1CCCCC1)N1CCn2cccc2C1c1cccnc1 (stereo not drawn)	active: 8.91 µM	
O=C(Nc1cc(N2CCOCC2)ncn1)c1ccc(F)cc1	inconclusive: 1.78 µM [inhibitor, single point]	
NC(=O)c1cc(-c2ccccc2)nc(N2CCCCCC2)n1		inactive: -18.2%
O=c1c2ccccc2nnn1Cc1ccc2ccccc2c1	inconclusive: 17.8 µM [inhibitor, single point]	
O=C(CO/N=C/c1ccccc1OC(F)F)NC1CCCCC1	inconclusive: 35.5 µM [inhibitor, partial curve, poor fit]	
CCc1c(C)nc2nncn2c1Nc1ccc(C(C)C)cc1	inconclusive: 6.31 µM [inhibitor, single point]	
O=C(N/N=C\c1ccc(CN(Cc2ccc(Cl)cc2)S(=O)(=O)c2ccccc2)o1)C(=O)Nc1ccc(F)cc1	inconclusive: 35.5 µM [inhibitor, single point]	
C=CCSc1nncn1/N=C/c1ccc(OC)cc1		inactive: 22.1%
Fc1ccc(CNC(=S)NC2CCCCCC2)cc1	inconclusive: 6.31 µM [inhibitor, single point]	
Cc1nc2cc(NCc3cc([N+](=O)[O-])ccc3O)ccc2n1Cc1ccccc1		inactive: 8.26% [at 46.1 µM]
O=C(Nc1cccc(NC(=O)c2cccs2)c1)c1cccnc1	inconclusive: 10 µM [inhibitor, single point]	

Of the compounds above, these contain a furan ring, fused or not.
SMILES	Potency	activity change, negative = inhibition
COc1ccccc1NC(=O)/C(=C/c1cccs1)NC(=O)c1ccco1		inactive: -0.0653% [at 46.1 µM]
Cc1cc(C(=O)N/N=C\C(Br)=C\c2ccccc2)c(C)o1	inconclusive: 11.2 µM [inhibitor, partial curve, poor fit]	
O=C(N/N=C\c1ccc(CN(Cc2ccc(Cl)cc2)S(=O)(=O)c2ccccc2)o1)C(=O)Nc1ccc(F)cc1	inconclusive: 35.5 µM [inhibitor, single point]	

Later entries:

SMILES	Potency	activity change, negative = inhibition
COc1cccc(NC(=O)c2ccc(NCCCN3CC(C)CC(C)C3)c([N+](=O)[O-])c2)c1 (stereo not drawn)		inactive: -26.8% [at 46.1 µM]
O=C(CSc1nc2ccc([N+](=O)[O-])cc2[nH]1)NC1CCCCCC1	inconclusive: 12.6 µM [inhibitor, partial curve, poor fit]	
CCN(CCO)Cc1csc2c(Br)cccc12	inconclusive: 35.5 µM [inhibitor, single point]	
CC(=O)Nc1c(C(=O)N2CCOCC2)cnn1-c1ccc(C)c(C)c1		inactive: -0.822% [at 46.1 µM]
CCCCc1ccccc1NC(=S)NC1CCCC1		inactive: -14.6% [at 46.1 µM]
CCOC(=O)C1(Cc2cccc(OC)c2)CCN(Cc2ccccc2OC)CC1	inconclusive: 6.31 µM [inhibitor, partial curve, poor fit]	
CC(NC(=O)c1ccc(N2CCCC2=O)cc1)c1ccccc1 (stereo not drawn)	inconclusive: 20.6 µM [activator, partial curve, poor fit]	
O=C(CN(C(=O)c1ccc(Cl)cc1)C1CCCCC1)Nc1ccc(Cl)c([N+](=O)[O-])c1	inconclusive: 11.2 µM [inhibitor, partial curve, poor fit]	
Fc1ccc(CNc2ccc(CNc3ncn[nH]3)cc2)cc1	inactive	
CCC(C)(C)NC(=O)CN(C(=O)CCC(=O)Nc1cc(C)ccn1)c1ccc2c(c1)OCO2	inconclusive: 1.41 µM [inhibitor, partial curve, poor fit]	
Cc1ccc(C(=O)NC(C(=O)NC2CCCC2)c2ccccc2)cc1 (stereo not drawn)		inactive: -1.14% [at 46.1 µM]
C=CCOc1ccc2nc(NC(=O)OC)[nH]c2c1	inconclusive: 9.2 µM [inhibitor, partial curve, poor fit]	
CCOC(=O)Cn1nnnc1CN(Cc1ccccc1)Cc1cc2cc(CC)ccc2[nH]c1=O	inconclusive: 18.3 µM [inhibitor, single point]	
S=c1[nH]cnc2sc(-c3ccccc3)cc12		inactive: 10.1% [at 46.1 µM]
CC1(C)CC(=O)C2=C(C1)O[C@@]1(CCCCN3C(=O)c4ccccc4C3=O)Cc3c(ccc4ccccc34)[C@H]2O1		inactive: -26.8% [at 14.2 µM]
CCOC(=O)OC[C@H]1O[C@H](c2ccccc2)C=C[C@H]1OC(=O)OCC	inconclusive: 5.96 µM [activator, single point]	
COc1ccc(-n2c(NCCN(C)C)nc3sc4c(c3c2=O)CCCCC4)cc1	active: 23.1 µM	
COc1cc(OC)c(C(=O)OCC(=O)N(Cc2ccccc2)C(C)(C)C)cc1OC	inconclusive: 22.4 µM [inhibitor, single point]	
CCCCC(c1nnnn1CC1CCCO1)N1CCN(c2nc3ccccc3s2)CC1 (stereo not drawn)	inconclusive: 22.4 µM [inhibitor, partial curve, poor fit]	
CCN(C(=O)c1cc2c(s1)-c1ccccc1OC2)c1cc(Cl)ccc1OC	inconclusive: 10 µM [inhibitor, partial curve, poor fit]	
COc1ccc(C(=O)N(c2ccc(OC)cc2)S(=O)(=O)c2cccs2)cc1	inconclusive: 0.316 µM [inhibitor, partial curve, poor fit]	
N=c1c2c(ncn1Cc1ccco1)Oc1ccc3ccccc3c1C2c1ccccc1 (stereo not drawn)	active: 9.2 µM	
COC(=O)C1C(=O)c2c([nH]c(C(=O)OC3CCCCCC3)c2C)CC1C (stereo not drawn)		inactive: -1.21%

SMILES	Potency	activity change, negative = inhibition
Cn1c(-c2ccccc2)c(CCO)c2ccccc21	inconclusive: 0.651 µM [inhibitor, full curve, poor fit]	
O=C(Nc1ccc(F)cc1)C1CC(=O)n2c(nc3ccccc32)N1 (stereo not drawn)	inconclusive: 6.31 µM [inhibitor, single point]	
COc1cc(/C=C2\SC(=N)N(c3ccc(F)cc3)C2=O)ccc1O	inconclusive: 2.82 µM [inhibitor, full curve, poor fit]	
C=CCn1cccc(C(=O)Nc2ccc(C)c(Cl)c2)c1=O		inactive: 11%
COc1ccc2[nH]c(=O)c(CNc3cccc(C)c3)cc2c1		inactive: -31.1%
CC1CN(c2nc3c(c(=O)n(Cc4ccc(Cl)c(Cl)c4)c(=O)n3C)n2C)CC(C)O1 (stereo not drawn)	inconclusive: 18.3 µM [inhibitor, single point]	
CC1CCCN(CCCOc2ccc(Br)cc2Cl)C1 (stereo not drawn)	inconclusive: 4.47 µM [inhibitor, full curve, poor fit]	
CCOC(=O)C1(Cc2ccccc2)CCCN(Cc2ccc(OCC)c(CO)c2)C1 (stereo not drawn)	inconclusive: 8.91 µM [inhibitor, partial curve, poor fit]	
Cc1cc(C(=O)N2CCc3c([nH]c4ccccc34)C2c2c(F)cccc2Cl)no1 (stereo not drawn)	inconclusive: 35.5 µM [inhibitor, single point]	
O=C1C=CCC(/C=C/c2ccccc2)O1 (stereo not drawn)	active: 8.2 µM	
Cc1ccc(C(=O)N/N=C\c2cccc(OC(=O)c3cccc(F)c3)c2)cn1		inactive: -19.4% [at 46.1 µM]
CC(C)(C)NC(=O)N1CCn2cccc2C1c1ccccc1F (stereo not drawn)	inconclusive: 20 µM [inhibitor, partial curve, poor fit]	
OC(COCC(F)(F)C(F)(F)C(F)(F)C(F)F)Cn1c2ccccc2c2ccccc21 (stereo not drawn)	inconclusive: 25.1 µM [inhibitor, single point]	
CCc1ccc(-c2nc(CS(=O)CC(=O)NCCN3CCCCCC3)c(C)o2)cc1 (stereo not drawn)	inconclusive: 11.2 µM [inhibitor, partial curve, poor fit]	
Cn1cnnc1SCc1ccccc1		inactive: -2%
CCN(CC)S(=O)(=O)c1ccc2c(c1)N(CC(=O)N1CCN(c3ccccc3F)CC1)C(=O)CO2	inconclusive: 6.31 µM [inhibitor, single point]	
O=C(Nc1cccc2ccccc12)OCc1cncs1	inconclusive: 12.6 µM [activator, partial curve]	
CN(C)CCCC(C)(O)C(Cc1ccccc1)c1ccccc1 (stereo not drawn)	inconclusive: 16.4 µM [inhibitor, partial curve, poor fit]	
O=C(Nc1nc2ccccc2n1Cc1ccc(Cl)cc1)c1ccco1	inconclusive: 16.4 µM [inhibitor, single point]	
COc1ccc(CNc2nc3nc(C)c(Cl)c(C)n3n2)cc1	inconclusive: 12.6 µM [activator, partial curve, poor fit]	
O=C(CN1C(=O)/C(=C/c2cccc(Cl)c2)SC1=S)NC1C=CS(=O)(=O)C1 (stereo not drawn)	inconclusive: 25.1 µM [inhibitor, single point]	
COc1ccccc1-c1cc(C(=O)NC2CCN(C)CC2)c2ccc(Cl)c(C)c2n1	inconclusive: 3.55 µM [inhibitor, partial curve, poor fit]	
